The numbers were not newly measured in article PMC7757987, “Antitumor Activity and Mechanism Study of Riluzole and Its Derivatives” (Iranian Journal of Pharmaceutical Research : IJPR, 2020), which cites them from elsewhere.

Structures are written as SMILES.

For the series the following is noted: cited from earlier work.

Turning to `Nc1nc2ccc(OC(F)(F)F)cc2s1` [Compound 1, 2-amino-6-trifuromethoxybenzothiazole], the Absolute bioavailability was ~60% and the Blood-brain barrier crossing entry is reported as “able to cross the blood-brain barrier”.
